According to PubChem BioAssay AID434947 (Broad Institute, 2010):
In all, about 2,200 compounds went through this assay and about 15 (0.7%) were called active.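 The calls were made as follows: active = fitted half-maximal concentration for loss of luminescence signal no more than a set limit of log units above the top tested concentration; inconclusive = flat fit with 30 to 70% signal loss, or invalid fit; inactive = half-maximal concentration above that set limit.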 This is one part of the list.

Experiment: ADP-Glo luciferase signal interference – biochemical, luminescence, cell-free, homogeneous, artefact control for GSK3beta inhibitor project, dose response (AID 434947);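 also: kinase-free counter screen of ADP-Glo detection reagents for GSK3beta hits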
Conditions: Cell-free ADP-Glo reagents, 5 uM ADP

EC50, inactive:
CN1CCN(C(=O)Cn2ncc3c([nH]c4ccccc43)c2=O)CC1 > 11 µM
CC(C)(C)C(=O)c1cnc(Nc2ccccc2)s1 > 30 µM
CCOC(=O)CC(=O)CSc1ccc2nnc(-c3ccccc3)n2n1 > 30 µM
c1cncc(CNc2nc(-c3cccnc3)nc3ccccc23)c1 > 30 µM
O=C(COc1ccccc1[N+](=O)[O-])N/N=C/c1ccncc1 > 30 µM
Cc1nn(C)c(C)c1S(=O)(=O)N(CC(=O)Nc1nccs1)c1ccc(C(C)C)cc1 > 30 µM
CCCCn1nc(NC(=O)CC)c2cc3cc(OC)ccc3nc21 > 30 µM
O=C(NCc1ccncc1)C1CCC(=O)N(CCc2ccc(Cl)cc2)C1 (stereo not drawn) > 30 µM
COc1ccc(Nc2nc(N)c([N+](=O)[O-])c(NC3CCCCC3)n2)cc1 > 30 µM
CC(=O)N1CCc2c(sc(NC(=O)CCS(=O)(=O)c3ccc(C)cc3)c2C(N)=O)C1 > 30 µM
NC(=O)c1c(NC(=O)c2ccncc2)sc2c1CCCC2 > 30 µM
CC(C)CCNc1nc(N)c([N+](=O)[O-])c(NCCO)n1 > 30 µM
O=c1cc(-c2ccccc2Cl)oc2c(NS(=O)(=O)c3ccccc3C(F)(F)F)ccc(O)c12 > 30 µM
CC(C)C1Cc2c(sc3c2c(=O)n(-c2ccccc2)c2n[nH]c(=S)n32)CO1 (stereo not drawn) > 30 µM
O=C(Oc1ccc(F)c(F)c1)c1ccc2c(=O)n3c(nc2c1)CCC3 > 30 µM
COc1ccc(OC)c(C(O)c2coc3ccc(O)c(CN(C)C)c23)c1 (stereo not drawn) > 30 µM
CCn1c(/C=C/N(C)c2ccccc2)[n+](CC)c2ccc(Cl)cc21 > 30 µM
COc1ccc(C(=O)c2coc3ccc(OC(C)=O)cc23)cc1 > 30 µM
CCOc1cc(C)cc2oc(=O)cc(-c3ccccc3)c12 > 30 µM
Nc1nc(NCC2CCCO2)nc(Nc2ccc(Cl)cc2)c1[N+](=O)[O-] (stereo not drawn) > 30 µM
Cc1ccc(N2CSC3=C(C#N)C(c4cccs4)CC(=O)N3C2)cc1 (stereo not drawn) > 30 µM
COCCCNC(=O)c1ccc(CS(=O)(=O)c2ccc(OC)cc2)o1 > 30 µM
Cc1ccc(S(=O)(=O)CCSc2n[nH]c(=O)n2-c2ccc3c(c2)OCCO3)cc1 > 30 µM
COC1=CC(=O)CC(C)C12Oc1cc(OC)cc(OC)c1C2=O (stereo not drawn) > 30 µM
COc1ccc(-c2nn(-c3ccccc3)cc2/C=N/Nc2ccccn2)cc1 > 30 µM
Cc1c(C(=O)O)sc2c1c(=O)n(Cc1ccccc1)c(=O)n2C > 30 µM
CC(C)N1CCc2c(sc(NC(=O)CN3C(=O)c4ccccc4C3=O)c2C(N)=O)C1 > 30 µM
O=C(OCCCOC(=O)c1cc[n+]([O-])cc1)c1cc[n+]([O-])cc1 > 30 µM
N#C/C(=C/c1cn[nH]c1-c1ccc(Br)cc1)C(=O)O > 30 µM
COc1cccc(C(=O)NCC(c2ccco2)N2CCc3ccccc3C2)c1 (stereo not drawn) > 30 µM
CCN(CC)C(=O)CSc1nc(N)c(C#N)c(-c2cccs2)c1C#N > 30 µM
O=Cc1cn(-c2ccccc2)nc1-c1ccccc1 > 30 µM
O=C(c1cc(COc2ccc(F)cc2F)on1)N1CCCC(c2ccccc2)C1 (stereo not drawn) > 30 µM
CC1(C)CC(=O)C=C(NCc2ccccc2)C1 > 30 µM
COc1ccc(C(=O)c2sc(Nc3ccccc3)nc2N)cc1OC > 30 µM
CC1CCCC(NC(=O)C2CCN(C(=O)Nc3ccccc3)CC2)C1C (stereo not drawn) > 30 µM
Cc1cc2cc(CN(CCCN3CCOCC3)C(=O)NC3CCCCC3)c(=O)[nH]c2cc1C > 30 µM
CCOC(=O)c1cnc2c(OC)cccc2c1N1CCN(c2ccc(OC)cc2)CC1 > 30 µM
NS(=O)(=O)c1ccc(N=Nc2c[nH]c(=O)c(O)c2)cc1 > 30 µM
CCN1CCc2c(sc(NC(=O)CN3C(=O)c4ccccc4C3=O)c2C(N)=O)C1 > 30 µM
Cc1ccnc(NC(=O)c2ccc([N+](=O)[O-])o2)c1 > 30 µM
CSc1nc(SCC(=O)NCC2CCCO2)c2c3c(sc2n1)CN(C)CC3 (stereo not drawn) > 30 µM
CC1(C)CC(=O)C=C(Nc2cc(-c3ccccc3)[nH]n2)C1 > 30 µM
O=C(O/N=C\c1ccc(N2CCCCC2)c([N+](=O)[O-])c1)c1c(F)cccc1F > 30 µM
O=c1c2c3c(sc2nc2n1N=C(c1cccs1)CS2)CCCC3 > 30 µM
CCOC(=O)C1=C(C)Nc2ncnn2C1c1ccccc1F (stereo not drawn) > 30 µM
CNc1nc(N)c([N+](=O)[O-])c(NC2CCCCC2)n1 > 30 µM
CC(=O)N1CCc2c(sc(NC(=O)CN3C(=O)CCC3=O)c2C(N)=O)C1 > 30 µM
COCCOC(=O)c1c(C)oc2ccc(OC(=O)c3cccs3)cc12 > 30 µM
Cn1nnnc1Sc1c(Cl)cccc1[N+](=O)[O-] > 30 µM
COc1ccc(OCCCC(=O)NCc2ccco2)cc1 > 30 µM
O=C(O)c1ccccc1NC(=O)c1ccccc1Nc1ccccc1 > 30 µM
CC(CC(=O)Nc1ccc(F)c([N+](=O)[O-])c1)c1ccccc1 (stereo not drawn) > 30 µM
Cc1ncsc1CCSc1nc2ccccc2c(=O)n1C > 30 µM
Cc1c(O)c(CN2CCCCC2)cc2c1oc(=O)c1ccccc12 > 30 µM
O=C(N/N=C/c1ccco1)c1ccn[nH]1 > 30 µM
O=C(C[n+]1ccc(/C=C/c2ccccc2)cc1)c1ccc2c(c1)OCCO2 > 30 µM
Cc1ccc(NC(=S)NC2CC3CCC(C2)N3Cc2ccco2)c(C)c1 (stereo not drawn) > 30 µM
COc1cc(-c2cc(=O)c3c(O)c(OC)c(OC)c(O)c3o2)ccc1O > 30 µM
Cc1cc(CNC(=O)C(C)n2cc([N+](=O)[O-])cn2)c2ccccc2n1 (stereo not drawn) > 30 µM
COc1ccc(CC(=O)Nc2ncc([N+](=O)[O-])s2)cc1OC > 30 µM
NC(=O)c1ccc(Oc2ccc(Cl)c3ccccc23)c([N+](=O)[O-])c1 > 30 µM
CCOC(=O)c1c(C)[nH]c(C)c1C(=O)COC(=O)CNC(=O)c1ccc(OCC)cc1 > 30 µM
O=C(CSc1ncnc2c1cnn2-c1ccc(F)cc1)NCC1CCCO1 (stereo not drawn) > 30 µM
O=C(N/N=C\c1ccco1)Nc1cccc(Cl)c1 > 30 µM
Cc1ccc(OCC(=O)N/N=C2/SCC(=O)N2Cc2ccccc2)cc1 > 30 µM
COCc1c(C(=O)Nc2ccc(Cl)cc2F)oc2ccccc12 > 30 µM
Nn1c(-c2cccs2)nc2sc3c(c2c1=O)CCCC3 > 30 µM
COc1ccccc1-n1c(-c2ccco2)n[nH]c1=S > 30 µM
O=C(Nc1ccccc1)ON=C1c2ccccc2-c2ccccc21 > 30 µM
COC(CSc1nc(N)c2c3c(sc2n1)CN(C)CC3)OC > 30 µM
O/N=C/c1cn(-c2ccccc2)nc1-c1cccnc1 > 30 µM
O=C(Nc1nc2ccc(Cl)cc2s1)C1CC1 > 30 µM
CCC(=O)Nc1nn(CC(C)C)c2nc3ccc(C)cc3cc12 > 30 µM
c1ccc(-c2nc(NCCCn3ccnc3)c3oc4ccccc4c3n2)cc1 > 30 µM
CC(Cl)C(=O)Nc1ncc(C(F)(F)F)cc1Cl (stereo not drawn) > 30 µM
COc1ccc(C(=O)c2sc(Nc3ccccc3)nc2N)cc1 > 30 µM
O=C(Nc1ccccc1Cl)N1CCSc2ccccc21 > 30 µM
C=CCN=C(NC#N)SCC(=O)NC(C)(C)C > 30 µM
CC1CCN(C(=O)CSc2nc(N)c3c4c(sc3n2)CN(C)CC4)CC1 > 30 µM
Nc1ncnc2c1ncn2[C@@H]1O[C@H](CO)[C@@H](O)[C@H]1O > 30 µM
N#Cc1c(N)nc(-c2ccccc2)nc1-c1ccccc1 > 30 µM
CCCN(CCC)Cc1c(C(=O)N/N=C/c2ccc(Br)cc2)nnn1-c1nonc1N > 30 µM
NC(=O)C1CCN(C(=O)c2ccc(Oc3cc(Cl)cc(Cl)c3)o2)CC1 > 30 µM
CC/C(=N\NC(=S)Nc1cccc(C)c1)c1ccccc1 > 30 µM
CC(=O)N1CCc2c(sc(NC(=O)C3COc4ccccc4O3)c2C(N)=O)C1 (stereo not drawn) > 30 µM
Cc1ccnc(SCCn2c(N3CCOCC3)nc3c2c(=O)[nH]c(=O)n3C)n1 > 30 µM
Nc1nc(NCc2ccco2)nc(Nc2cccc(F)c2)c1[N+](=O)[O-] > 30 µM
Cn1nc2c3ccccc3n(Cc3ccc(F)cc3)c2nc1=S > 30 µM
O=C(Nc1ncc(Cc2ccccc2)s1)C1CCCO1 (stereo not drawn) > 30 µM
Oc1cccc(Nc2nc(-c3ccccc3)nc3ccccc23)c1 > 30 µM
CC(C(=O)NC1CCCCCC1)n1cc([N+](=O)[O-])cn1 (stereo not drawn) > 30 µM
O=C1CC(SC(=Nc2ccccc2)Nc2ccccc2)C(=O)N1c1cccc2ccccc12 (stereo not drawn) > 30 µM

Entries from the list above that have a COOH group, in the order listed:
EC50, inactive:
Cc1c(C(=O)O)sc2c1c(=O)n(Cc1ccccc1)c(=O)n2C > 30 µM
N#C/C(=C/c1cn[nH]c1-c1ccc(Br)cc1)C(=O)O > 30 µM
O=C(O)c1ccccc1NC(=O)c1ccccc1Nc1ccccc1 > 30 µM

Entries shown so far with bromine, in the order listed:
EC50, inactive:
N#C/C(=C/c1cn[nH]c1-c1ccc(Br)cc1)C(=O)O > 30 µM
CCCN(CCC)Cc1c(C(=O)N/N=C/c2ccc(Br)cc2)nnn1-c1nonc1N > 30 µM
